Laboratory results reported in the supplement of paper PMC12819154, “High-throughput peptide-centric local stability assay extends protein–ligand identification to membrane proteins, tissues and bacteria” (Nature Structural & Molecular Biology, 2025).
The list shows a part of the results. Small differences around the control level are noise.

Chains of the proteins cited; added tags and fusions are not shown. Lines headed by an entry give the natural chain unless they say otherwise; changes in a name come on top.
UniProt P98063: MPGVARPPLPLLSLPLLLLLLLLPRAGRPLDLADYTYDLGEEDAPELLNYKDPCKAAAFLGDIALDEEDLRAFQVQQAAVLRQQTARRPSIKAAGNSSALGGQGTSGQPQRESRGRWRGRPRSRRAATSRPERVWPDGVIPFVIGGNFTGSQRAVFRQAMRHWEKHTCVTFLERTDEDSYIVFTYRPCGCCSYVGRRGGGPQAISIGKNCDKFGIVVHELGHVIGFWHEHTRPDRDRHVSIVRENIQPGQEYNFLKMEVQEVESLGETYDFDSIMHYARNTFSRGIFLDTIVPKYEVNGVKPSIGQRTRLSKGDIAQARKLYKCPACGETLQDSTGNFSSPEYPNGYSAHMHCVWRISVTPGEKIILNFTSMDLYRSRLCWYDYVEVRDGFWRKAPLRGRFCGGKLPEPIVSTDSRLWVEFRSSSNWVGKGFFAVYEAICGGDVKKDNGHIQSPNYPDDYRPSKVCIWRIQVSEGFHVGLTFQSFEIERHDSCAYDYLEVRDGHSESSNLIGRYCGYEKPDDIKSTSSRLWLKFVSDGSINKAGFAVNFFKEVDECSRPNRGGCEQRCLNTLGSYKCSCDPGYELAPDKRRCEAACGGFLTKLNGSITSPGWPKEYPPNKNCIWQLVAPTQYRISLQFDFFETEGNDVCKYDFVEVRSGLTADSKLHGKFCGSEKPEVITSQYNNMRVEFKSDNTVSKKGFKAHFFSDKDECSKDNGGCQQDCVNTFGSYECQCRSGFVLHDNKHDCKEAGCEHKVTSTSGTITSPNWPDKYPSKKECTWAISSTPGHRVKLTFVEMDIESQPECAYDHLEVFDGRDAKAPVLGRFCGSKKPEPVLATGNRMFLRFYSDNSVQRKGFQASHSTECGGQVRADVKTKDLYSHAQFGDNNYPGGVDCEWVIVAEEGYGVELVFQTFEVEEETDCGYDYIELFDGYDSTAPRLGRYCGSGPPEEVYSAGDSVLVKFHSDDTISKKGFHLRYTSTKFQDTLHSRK
UniProt P83887, whole entry: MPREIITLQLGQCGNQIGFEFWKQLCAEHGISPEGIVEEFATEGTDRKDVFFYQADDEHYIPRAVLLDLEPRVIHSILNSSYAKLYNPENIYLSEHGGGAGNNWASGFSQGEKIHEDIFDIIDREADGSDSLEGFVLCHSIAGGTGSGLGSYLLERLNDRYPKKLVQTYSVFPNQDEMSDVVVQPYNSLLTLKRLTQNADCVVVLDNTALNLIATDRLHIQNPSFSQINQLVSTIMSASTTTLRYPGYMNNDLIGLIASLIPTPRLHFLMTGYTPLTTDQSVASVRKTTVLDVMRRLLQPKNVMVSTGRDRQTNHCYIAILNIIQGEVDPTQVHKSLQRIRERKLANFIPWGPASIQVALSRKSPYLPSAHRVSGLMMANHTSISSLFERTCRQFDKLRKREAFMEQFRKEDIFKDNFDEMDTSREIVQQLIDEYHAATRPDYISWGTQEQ
UniProt P70274, whole entry: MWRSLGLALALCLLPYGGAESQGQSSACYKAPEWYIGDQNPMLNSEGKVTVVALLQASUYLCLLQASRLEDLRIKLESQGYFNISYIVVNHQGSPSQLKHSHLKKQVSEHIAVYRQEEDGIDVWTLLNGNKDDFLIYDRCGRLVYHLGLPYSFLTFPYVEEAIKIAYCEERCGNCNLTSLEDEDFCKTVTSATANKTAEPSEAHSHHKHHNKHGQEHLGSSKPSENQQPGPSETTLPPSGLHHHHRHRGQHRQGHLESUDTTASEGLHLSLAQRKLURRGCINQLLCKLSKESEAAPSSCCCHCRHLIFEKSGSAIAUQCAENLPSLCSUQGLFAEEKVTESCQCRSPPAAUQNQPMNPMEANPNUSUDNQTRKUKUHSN
UniProt P69566, whole entry: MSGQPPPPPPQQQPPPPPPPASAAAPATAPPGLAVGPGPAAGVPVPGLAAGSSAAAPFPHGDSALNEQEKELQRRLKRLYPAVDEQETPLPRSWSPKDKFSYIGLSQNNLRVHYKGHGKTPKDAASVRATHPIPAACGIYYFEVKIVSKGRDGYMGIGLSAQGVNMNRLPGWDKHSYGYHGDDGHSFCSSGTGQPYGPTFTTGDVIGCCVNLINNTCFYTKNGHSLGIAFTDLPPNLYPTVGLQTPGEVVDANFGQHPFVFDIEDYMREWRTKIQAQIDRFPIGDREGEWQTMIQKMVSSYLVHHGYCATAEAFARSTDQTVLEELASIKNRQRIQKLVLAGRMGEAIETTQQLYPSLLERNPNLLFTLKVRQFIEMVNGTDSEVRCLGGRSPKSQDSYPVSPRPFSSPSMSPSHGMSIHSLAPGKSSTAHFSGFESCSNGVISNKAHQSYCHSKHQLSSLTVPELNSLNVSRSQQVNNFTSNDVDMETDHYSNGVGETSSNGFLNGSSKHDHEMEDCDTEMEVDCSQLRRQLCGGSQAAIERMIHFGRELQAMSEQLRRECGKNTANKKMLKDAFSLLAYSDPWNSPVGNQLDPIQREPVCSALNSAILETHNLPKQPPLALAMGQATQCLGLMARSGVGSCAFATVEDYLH
UniProt P70261: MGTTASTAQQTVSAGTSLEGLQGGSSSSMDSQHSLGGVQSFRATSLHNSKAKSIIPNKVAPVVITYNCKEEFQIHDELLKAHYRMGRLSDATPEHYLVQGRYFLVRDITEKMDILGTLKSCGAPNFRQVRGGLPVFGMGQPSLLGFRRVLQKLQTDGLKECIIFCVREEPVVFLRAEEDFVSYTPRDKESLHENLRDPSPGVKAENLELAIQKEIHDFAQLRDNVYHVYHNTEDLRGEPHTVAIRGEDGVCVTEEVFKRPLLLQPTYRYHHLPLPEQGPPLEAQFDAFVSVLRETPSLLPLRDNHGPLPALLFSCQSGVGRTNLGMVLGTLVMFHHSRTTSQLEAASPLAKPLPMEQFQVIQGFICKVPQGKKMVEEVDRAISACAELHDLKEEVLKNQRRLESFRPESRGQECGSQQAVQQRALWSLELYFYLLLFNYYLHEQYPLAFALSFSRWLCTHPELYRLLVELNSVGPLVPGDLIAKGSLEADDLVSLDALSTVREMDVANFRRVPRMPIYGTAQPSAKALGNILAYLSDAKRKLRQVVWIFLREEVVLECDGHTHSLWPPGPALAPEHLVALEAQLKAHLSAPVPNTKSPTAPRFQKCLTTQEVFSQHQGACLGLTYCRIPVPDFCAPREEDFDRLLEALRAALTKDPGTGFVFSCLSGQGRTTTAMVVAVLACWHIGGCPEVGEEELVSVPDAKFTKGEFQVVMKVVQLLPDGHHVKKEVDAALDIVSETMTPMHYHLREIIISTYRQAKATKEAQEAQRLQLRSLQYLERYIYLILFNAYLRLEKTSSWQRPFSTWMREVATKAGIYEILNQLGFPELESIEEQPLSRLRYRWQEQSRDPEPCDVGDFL
UniProt P70671: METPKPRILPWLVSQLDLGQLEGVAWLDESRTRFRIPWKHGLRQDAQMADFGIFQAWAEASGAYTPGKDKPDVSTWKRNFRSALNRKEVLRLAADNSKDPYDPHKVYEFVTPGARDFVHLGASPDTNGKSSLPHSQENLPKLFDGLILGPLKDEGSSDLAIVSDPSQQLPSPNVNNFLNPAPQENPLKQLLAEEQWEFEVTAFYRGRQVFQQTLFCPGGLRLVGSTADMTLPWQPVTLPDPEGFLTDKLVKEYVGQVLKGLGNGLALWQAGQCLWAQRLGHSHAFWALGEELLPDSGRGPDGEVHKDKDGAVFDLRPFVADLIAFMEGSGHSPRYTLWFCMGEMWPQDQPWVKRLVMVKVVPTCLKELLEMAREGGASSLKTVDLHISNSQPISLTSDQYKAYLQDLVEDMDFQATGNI
UniProt P97855, whole entry: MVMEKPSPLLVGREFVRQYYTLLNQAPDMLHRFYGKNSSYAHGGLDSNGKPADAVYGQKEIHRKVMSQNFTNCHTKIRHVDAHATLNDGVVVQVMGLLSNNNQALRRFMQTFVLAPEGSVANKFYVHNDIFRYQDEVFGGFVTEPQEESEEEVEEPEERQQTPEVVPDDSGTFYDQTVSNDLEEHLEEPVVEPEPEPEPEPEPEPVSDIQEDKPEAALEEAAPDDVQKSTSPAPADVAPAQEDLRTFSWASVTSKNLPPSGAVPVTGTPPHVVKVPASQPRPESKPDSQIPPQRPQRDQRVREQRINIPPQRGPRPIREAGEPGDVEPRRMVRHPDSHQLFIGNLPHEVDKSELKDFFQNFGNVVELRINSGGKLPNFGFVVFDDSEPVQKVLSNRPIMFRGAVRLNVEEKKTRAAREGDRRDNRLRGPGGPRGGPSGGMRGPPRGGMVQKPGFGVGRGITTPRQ
UniProt Q00560: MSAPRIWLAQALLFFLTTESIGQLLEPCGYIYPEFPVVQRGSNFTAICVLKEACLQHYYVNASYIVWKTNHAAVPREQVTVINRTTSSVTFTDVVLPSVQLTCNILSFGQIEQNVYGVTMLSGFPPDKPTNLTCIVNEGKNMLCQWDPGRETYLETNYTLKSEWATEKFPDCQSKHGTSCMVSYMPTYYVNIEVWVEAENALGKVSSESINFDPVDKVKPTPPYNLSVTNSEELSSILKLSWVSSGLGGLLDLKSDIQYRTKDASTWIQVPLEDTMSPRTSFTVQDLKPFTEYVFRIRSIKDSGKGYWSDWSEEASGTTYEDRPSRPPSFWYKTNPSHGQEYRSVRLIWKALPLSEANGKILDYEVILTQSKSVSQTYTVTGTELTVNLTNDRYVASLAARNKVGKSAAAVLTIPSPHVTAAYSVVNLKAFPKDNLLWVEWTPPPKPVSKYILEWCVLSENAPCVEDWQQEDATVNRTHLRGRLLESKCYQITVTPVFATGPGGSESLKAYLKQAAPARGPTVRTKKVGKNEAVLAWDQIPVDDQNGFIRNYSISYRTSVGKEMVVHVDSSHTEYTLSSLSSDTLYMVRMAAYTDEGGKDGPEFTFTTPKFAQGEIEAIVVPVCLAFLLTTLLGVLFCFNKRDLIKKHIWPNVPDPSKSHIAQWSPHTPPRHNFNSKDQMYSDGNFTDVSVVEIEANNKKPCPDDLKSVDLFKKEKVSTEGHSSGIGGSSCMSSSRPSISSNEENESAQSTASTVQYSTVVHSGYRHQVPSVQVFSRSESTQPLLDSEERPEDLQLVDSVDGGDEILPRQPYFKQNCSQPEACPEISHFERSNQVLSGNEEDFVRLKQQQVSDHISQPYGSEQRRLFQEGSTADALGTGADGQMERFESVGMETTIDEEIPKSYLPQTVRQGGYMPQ
UniProt P70460: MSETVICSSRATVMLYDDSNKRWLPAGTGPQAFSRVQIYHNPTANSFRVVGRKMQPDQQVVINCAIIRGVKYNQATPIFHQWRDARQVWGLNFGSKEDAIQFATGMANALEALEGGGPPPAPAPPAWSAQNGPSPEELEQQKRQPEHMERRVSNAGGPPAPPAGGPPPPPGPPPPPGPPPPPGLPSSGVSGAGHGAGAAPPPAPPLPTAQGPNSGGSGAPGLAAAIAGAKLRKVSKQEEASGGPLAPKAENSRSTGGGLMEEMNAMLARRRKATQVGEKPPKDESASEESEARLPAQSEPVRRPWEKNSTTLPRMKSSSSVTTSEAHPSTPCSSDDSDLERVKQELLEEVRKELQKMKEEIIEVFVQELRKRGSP
UniProt P97450: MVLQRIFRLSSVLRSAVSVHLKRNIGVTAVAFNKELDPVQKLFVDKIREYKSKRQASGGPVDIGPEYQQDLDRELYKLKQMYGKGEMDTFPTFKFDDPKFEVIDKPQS
UniProt P97823: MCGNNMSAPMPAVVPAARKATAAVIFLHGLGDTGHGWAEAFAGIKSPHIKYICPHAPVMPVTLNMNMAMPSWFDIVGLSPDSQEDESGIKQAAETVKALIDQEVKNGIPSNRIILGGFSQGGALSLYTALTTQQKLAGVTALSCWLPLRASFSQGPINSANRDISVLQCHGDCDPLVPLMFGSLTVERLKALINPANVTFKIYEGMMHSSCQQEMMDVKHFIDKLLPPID
UniProt Q01730: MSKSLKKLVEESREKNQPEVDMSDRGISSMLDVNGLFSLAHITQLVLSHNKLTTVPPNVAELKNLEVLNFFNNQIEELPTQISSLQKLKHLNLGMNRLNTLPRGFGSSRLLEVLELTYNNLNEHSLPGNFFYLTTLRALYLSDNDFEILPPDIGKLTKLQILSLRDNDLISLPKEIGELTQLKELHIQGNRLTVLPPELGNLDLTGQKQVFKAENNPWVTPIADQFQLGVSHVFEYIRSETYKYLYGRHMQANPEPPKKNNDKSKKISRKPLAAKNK
UniProt P70333: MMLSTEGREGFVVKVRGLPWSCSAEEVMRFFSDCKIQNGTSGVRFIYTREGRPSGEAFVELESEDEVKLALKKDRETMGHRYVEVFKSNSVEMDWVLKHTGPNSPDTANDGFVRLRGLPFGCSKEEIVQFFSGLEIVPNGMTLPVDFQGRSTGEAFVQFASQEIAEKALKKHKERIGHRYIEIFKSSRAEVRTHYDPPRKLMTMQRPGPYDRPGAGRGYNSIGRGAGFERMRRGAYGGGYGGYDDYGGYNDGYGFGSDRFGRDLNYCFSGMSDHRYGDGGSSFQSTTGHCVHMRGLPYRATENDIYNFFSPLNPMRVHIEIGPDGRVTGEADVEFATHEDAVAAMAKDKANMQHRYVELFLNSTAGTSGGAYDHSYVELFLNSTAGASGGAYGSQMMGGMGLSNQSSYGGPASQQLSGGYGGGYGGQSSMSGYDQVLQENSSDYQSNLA

Each target was assayed with CN[C@@H]1C[C@H]2O[C@@](C)([C@@H]1OC)n1c3ccccc3c3c4c(c5c6ccccc6n2c5c31)C(=O)NC4 [staurosporine] (assay: log2 fold change of tryptic peptide abundance, ligand vs vehicle (limited proteolysis) (log2 ratio); higher = more trypsin-susceptible (destabilized)). Conditions: ligand concentration: 20 uM; sample: mouse liver crude lysate; replicate design: treated separately.
With “UniProt P86048 (peptide sequence: MLSCAGADRLQTGMR, peptide start residue: 102)” the log2 fold change was -0.167.
Target “UniProt Q00547 (peptide sequence: LKDENSQLK, peptide start residue: 728)” has a log2 fold change of -0.0989.
Target “UniProt P98063 (peptide sequence: AFQVQQAAVLR, peptide start residue: 72)” has a log2 fold change of -0.046.
For “UniProt Q01514 (peptide sequence: TLSGGITVNGPR, peptide start residue: 279)”, the log2 fold change was -0.462.
“UniProt P83887 (peptide sequence: KREAFMEQFR, peptide start residue: 400)” gave a log2 fold change of 0.716.
In the case of “UniProt Q01768 (peptide sequence: EIHLWFKPEELIDYK, peptide start residue: 129)”, the log2 fold change is reported as 0.335.
“UniProt P97401 (peptide sequence: ASLVNIPR, peptide start residue: 225)” gave a log2 fold change of 0.0724.
Work on “UniProt P70274 (peptide sequence: ESEAAPSSCCCHCR, peptide start residue: 292)” yielded a log2 fold change of 0.252.
Work on “UniProt P97348 (peptide sequence: VVLVGDGGCGK, peptide start residue: 20)” yielded a log2 fold change of -0.11.
With “UniProt P98203 (peptide sequence: SVENCVCIMR, peptide start residue: 569)” the log2 fold change was -0.552.
Target “UniProt P97819 (peptide sequence: GEHGNTPLHLAMSK, peptide start residue: 347)” has a log2 fold change of 0.346.
“UniProt P97807 (peptide sequence: RAAAEVNQEYGLDPK, peptide start residue: 98)” showed a log2 fold change of -0.466.
Work on “UniProt P69566 (peptide sequence: HQLSSLTVPELNSLNVSR, peptide start residue: 456)” yielded a log2 fold change of 0.261.
“UniProt P97390 (peptide sequence: LVSAVVEYGGKR, peptide start residue: 422)” showed a log2 fold change of 0.36.
For “UniProt P70261 (peptide sequence: AEEDFVSYTPR, peptide start residue: 176)”, the log2 fold change was -0.28.
For “UniProt P70671 (peptide sequence: VYEFVTPGAR, peptide start residue: 106)”, the log2 fold change was 0.133.
“UniProt P97325 (peptide sequence: VSASDGFWK, peptide start residue: 247)” was tested, and the log2 fold change was -0.0267.
For “UniProt Q01339 (peptide sequence: ATVLYQGMR, peptide start residue: 271)”, the log2 fold change was 0.255.
Work on “UniProt P97411 (peptide sequence: EAVAPEPR, peptide start residue: 291)” yielded a log2 fold change of 0.00721.
“UniProt P97855 (peptide sequence: INIPPQRGPRPIR, peptide start residue: 306)” was tested, and the log2 fold change was -0.595.
“UniProt Q00560 (peptide sequence: SYLPQTVR, peptide start residue: 903)” was tested, and the log2 fold change was -0.111.
“UniProt P70460 (peptide sequence: YNQATPIFHQWR, peptide start residue: 72)” gave a log2 fold change of -0.404.
For “UniProt P97363 (peptide sequence: PEPGGCCCR, peptide start residue: 3)”, the log2 fold change was 0.027.
With “UniProt P97450 (peptide sequence: QMYGKGEMDTFPTFK, peptide start residue: 80)” the log2 fold change was -0.294.
“UniProt Q00915 (peptide sequence: PVDFNGYWK, peptide start residue: 2)” was tested, and the log2 fold change was 0.0729.
For “UniProt P97823 (peptide sequence: HFIDKLLPPID, peptide start residue: 220)”, the log2 fold change was -0.45.
For “UniProt Q01730 (peptide sequence: ELHIQGNR, peptide start residue: 184)”, the log2 fold change was -0.475.
Work on “UniProt P70333 (peptide sequence: KLMTMQR, peptide start residue: 200)” yielded a log2 fold change of -0.313.
“UniProt P97501 (peptide sequence: NAILTQWDR, peptide start residue: 483)” gave a log2 fold change of -0.205.
Work on “UniProt P97315 (peptide sequence: HEEAPGHRPTTNPNASK, peptide start residue: 92)” yielded a log2 fold change of 0.187.
Work on “UniProt P70365 (peptide sequence: ELYSQQHR, peptide start residue: 1121)” yielded a log2 fold change of -0.45.
